Test results published in paper PMC5123055.
Results are given in words; binding and its absence hold for the method and conditions named. Binding seen in cells or lysates may run through a third protein. Some entries that bind do so weakly or less than the wild type.

Sequences of proteins named here, by UniProt entry; tags and fusion partners are left off. A change or cut given only in a name is not applied to a line headed by its entry.
UniProt P04650: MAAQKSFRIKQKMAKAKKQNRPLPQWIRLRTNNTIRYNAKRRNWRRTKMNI
UniProt P0CX82: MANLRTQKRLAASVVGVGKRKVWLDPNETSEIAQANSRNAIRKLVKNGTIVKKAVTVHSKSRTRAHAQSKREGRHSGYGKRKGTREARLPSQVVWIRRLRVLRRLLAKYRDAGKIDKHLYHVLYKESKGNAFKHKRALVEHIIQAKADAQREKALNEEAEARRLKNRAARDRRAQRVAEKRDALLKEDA
UniProt P11484: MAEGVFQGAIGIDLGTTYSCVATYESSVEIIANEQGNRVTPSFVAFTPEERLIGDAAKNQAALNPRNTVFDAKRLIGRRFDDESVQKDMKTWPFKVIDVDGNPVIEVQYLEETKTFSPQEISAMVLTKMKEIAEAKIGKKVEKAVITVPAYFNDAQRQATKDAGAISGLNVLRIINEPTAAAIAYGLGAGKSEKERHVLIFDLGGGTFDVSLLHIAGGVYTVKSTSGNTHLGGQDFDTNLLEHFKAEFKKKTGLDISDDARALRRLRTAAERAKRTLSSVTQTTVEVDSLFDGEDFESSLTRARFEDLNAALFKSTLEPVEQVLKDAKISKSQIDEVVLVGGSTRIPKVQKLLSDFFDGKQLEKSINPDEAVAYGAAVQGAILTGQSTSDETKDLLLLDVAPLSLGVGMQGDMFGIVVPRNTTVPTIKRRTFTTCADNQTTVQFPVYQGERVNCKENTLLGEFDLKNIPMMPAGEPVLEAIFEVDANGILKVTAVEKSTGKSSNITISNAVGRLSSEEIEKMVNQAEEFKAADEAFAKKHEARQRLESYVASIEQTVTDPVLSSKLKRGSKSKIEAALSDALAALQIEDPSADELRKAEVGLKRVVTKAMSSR

Assays:
[1] = target: Rpl39 (S. cerevisiae (endogenous in yeast extract)) (UniProt P04650); test: cross-linking; 1.2 mM BS3, 20 min, 21 °C, in total cell extract (20 mM Hepes/KOH pH 7.4, 80 mM potassium acetate, 2 mM magnesium acetate); ribosomes pelleted; immunoblots with antibodies against ribosomal proteins; compared with a Δssb1Δssb2 extract
[2] = target: Rpl19 (S. cerevisiae (endogenous in yeast extract)) (UniProt P0CX82); test: as above
[3] = target: T1, Rpl35 (S. cerevisiae (endogenous in yeast extract)) (UniProt P0CX84); test: as above
T1 sequence: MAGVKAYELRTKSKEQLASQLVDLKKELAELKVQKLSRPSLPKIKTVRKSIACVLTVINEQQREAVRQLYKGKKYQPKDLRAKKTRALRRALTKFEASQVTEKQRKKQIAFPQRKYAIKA

[4] = target: T2, Sse1 (S. cerevisiae (endogenous in yeast extract)) (UniProt P32589); test: cross-linking; BS3 on isolated ribosomes of the Ssb1* strain (legend; the text says cell extract); sample separated into cytosolic supernatant and ribosomal pellet on a low-salt sucrose cushion; immunoblot with αSsb
T2 sequence: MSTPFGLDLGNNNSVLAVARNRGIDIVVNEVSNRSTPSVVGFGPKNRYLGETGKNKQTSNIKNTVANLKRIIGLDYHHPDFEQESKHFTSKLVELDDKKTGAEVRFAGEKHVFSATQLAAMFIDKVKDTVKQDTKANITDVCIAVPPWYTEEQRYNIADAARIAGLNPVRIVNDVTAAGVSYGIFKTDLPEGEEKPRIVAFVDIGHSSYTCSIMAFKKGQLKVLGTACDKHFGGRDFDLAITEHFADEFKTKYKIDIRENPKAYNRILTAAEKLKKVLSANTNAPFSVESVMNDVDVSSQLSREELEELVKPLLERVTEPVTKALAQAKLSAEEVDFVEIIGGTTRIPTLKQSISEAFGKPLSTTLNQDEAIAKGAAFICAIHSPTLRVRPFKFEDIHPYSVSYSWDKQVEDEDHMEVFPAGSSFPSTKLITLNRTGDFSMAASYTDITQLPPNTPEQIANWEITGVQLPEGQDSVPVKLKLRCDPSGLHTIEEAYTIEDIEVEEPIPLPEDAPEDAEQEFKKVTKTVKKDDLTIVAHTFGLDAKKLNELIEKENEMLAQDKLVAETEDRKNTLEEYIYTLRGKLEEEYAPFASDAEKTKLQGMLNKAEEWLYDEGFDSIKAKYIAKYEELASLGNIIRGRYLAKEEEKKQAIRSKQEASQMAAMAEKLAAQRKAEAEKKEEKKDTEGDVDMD

binding [1]: binds
binding [2]: binds
binding [3]: binds
binding [4]: binds
Substance: Ssb1-A577K (Ssb1*) (from UniProt P11484 1-613)
